Experimental data taken from PMC8752738, “A propolis-derived small molecule ameliorates metabolic syndrome in obese mice by targeting the CREB/CRTC2 transcriptional complex” (Nature Communications, 2022).
These are yes or no findings as the source states them, for the method shown. For some assays here: Binding seen in cells or lysates may run through a third protein. Some binding calls cover weakened binding; strength is not graded here. For some assays here: Sequences can lack the tags named with a protein. Values belong to the molecule of their own block, whether it stands above or below them.

Sequences of proteins named here, by UniProt entry; tags and fusion partners are left off. A change or cut given only in a name is not applied to a line headed by its entry. Residues count along the entry.
UniProt P16220: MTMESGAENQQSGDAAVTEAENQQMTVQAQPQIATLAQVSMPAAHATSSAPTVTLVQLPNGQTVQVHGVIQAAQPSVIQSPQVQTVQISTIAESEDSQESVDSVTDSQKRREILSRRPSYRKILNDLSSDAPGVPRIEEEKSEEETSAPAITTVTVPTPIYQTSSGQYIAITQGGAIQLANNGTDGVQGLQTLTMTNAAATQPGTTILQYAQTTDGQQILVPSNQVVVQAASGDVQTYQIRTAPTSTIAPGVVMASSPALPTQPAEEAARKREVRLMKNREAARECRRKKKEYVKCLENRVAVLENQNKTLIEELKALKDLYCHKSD
CREB-KID: residues 87-146 of P16220
UniProt Q01147: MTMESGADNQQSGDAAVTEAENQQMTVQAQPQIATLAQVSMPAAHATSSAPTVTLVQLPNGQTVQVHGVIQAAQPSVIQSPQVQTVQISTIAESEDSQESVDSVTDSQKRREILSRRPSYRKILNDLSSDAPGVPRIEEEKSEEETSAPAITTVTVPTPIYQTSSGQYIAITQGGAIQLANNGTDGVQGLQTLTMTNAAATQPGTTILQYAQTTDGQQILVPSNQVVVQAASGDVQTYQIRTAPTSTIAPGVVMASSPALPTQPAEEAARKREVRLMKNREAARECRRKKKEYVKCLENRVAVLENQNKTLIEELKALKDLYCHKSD
UniProt Q92793, residues 587-666: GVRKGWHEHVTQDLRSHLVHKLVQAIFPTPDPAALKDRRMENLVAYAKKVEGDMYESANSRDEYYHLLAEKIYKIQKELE
UniProt P45481: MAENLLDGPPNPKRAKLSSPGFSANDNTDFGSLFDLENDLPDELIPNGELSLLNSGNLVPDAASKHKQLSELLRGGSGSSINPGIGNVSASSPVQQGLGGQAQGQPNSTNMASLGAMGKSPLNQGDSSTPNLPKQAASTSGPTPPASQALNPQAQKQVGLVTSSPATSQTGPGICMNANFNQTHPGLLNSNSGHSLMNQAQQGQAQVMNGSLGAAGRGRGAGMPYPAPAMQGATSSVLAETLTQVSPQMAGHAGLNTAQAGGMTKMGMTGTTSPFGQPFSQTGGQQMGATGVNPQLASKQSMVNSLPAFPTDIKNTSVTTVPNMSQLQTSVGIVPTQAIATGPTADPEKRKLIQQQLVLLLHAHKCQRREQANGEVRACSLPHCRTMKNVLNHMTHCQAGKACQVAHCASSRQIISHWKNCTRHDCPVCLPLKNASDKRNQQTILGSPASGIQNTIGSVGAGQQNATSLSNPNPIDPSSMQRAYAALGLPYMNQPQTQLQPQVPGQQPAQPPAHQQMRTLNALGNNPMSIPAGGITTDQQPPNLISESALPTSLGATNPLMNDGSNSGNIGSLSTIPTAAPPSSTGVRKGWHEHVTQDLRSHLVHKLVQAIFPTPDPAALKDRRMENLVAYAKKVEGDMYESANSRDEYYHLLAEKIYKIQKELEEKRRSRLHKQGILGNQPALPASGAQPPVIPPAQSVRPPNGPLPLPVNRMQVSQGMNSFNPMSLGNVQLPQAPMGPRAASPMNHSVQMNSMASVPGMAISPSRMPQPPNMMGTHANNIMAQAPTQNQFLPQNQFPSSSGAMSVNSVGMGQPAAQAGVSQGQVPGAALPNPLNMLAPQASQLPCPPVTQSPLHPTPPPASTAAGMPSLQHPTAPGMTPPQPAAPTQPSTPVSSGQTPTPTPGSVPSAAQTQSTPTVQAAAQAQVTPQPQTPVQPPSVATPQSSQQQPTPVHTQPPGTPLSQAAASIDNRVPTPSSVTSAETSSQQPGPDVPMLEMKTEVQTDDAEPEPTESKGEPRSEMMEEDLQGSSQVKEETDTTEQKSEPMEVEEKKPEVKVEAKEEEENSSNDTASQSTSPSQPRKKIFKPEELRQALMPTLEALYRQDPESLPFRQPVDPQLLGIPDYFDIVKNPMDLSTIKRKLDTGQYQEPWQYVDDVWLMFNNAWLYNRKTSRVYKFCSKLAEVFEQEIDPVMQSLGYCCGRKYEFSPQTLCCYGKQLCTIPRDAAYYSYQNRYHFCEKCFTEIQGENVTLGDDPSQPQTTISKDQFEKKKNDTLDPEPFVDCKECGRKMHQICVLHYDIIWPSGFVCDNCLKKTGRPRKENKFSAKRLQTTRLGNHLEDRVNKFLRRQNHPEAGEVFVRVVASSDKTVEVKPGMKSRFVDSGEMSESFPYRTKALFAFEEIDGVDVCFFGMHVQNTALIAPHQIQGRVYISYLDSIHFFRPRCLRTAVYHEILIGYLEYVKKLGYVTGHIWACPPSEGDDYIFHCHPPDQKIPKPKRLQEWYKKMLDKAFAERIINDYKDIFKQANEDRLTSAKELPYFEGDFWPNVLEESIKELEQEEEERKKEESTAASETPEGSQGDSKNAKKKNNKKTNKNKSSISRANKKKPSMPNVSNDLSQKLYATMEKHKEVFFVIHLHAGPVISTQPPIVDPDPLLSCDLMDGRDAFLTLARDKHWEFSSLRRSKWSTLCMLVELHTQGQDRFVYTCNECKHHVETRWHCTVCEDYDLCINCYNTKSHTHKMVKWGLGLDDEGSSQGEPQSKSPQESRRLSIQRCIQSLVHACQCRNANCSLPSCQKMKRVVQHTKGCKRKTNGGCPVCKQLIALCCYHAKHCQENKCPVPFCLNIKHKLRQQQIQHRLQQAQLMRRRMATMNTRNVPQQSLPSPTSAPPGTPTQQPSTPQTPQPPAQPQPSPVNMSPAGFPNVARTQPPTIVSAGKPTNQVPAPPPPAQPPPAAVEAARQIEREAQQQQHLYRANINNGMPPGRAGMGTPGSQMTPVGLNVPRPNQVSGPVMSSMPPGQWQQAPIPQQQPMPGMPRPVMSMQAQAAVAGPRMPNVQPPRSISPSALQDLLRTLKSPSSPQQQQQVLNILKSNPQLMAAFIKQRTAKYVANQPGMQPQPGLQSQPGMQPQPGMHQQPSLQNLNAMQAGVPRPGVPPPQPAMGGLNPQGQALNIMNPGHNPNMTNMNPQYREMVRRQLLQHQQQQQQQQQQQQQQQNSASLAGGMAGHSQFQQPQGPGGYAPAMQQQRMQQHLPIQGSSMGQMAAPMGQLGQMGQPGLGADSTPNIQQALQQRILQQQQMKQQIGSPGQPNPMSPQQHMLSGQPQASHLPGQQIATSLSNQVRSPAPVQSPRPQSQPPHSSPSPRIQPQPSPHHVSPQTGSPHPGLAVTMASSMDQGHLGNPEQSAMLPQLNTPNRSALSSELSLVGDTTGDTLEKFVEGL

Tests used:
CREB-KID = CREB-KID (UniProt P16220); test: two-hybrid; two-hybrid assay of CBP-KIX and CREB-KID domains, with or without APC (Supplementary Fig. 2h)
[1] = biological target: T1, endogenous CRTC2 (mouse (endogenous in primary hepatocytes)) (UniProt Q3U182); test: co-IP; anti-CRTC2 antibody, endogenous proteins in lysates of primary hepatocytes; with or without glucagon and APC (10 uM)
T1 sequence: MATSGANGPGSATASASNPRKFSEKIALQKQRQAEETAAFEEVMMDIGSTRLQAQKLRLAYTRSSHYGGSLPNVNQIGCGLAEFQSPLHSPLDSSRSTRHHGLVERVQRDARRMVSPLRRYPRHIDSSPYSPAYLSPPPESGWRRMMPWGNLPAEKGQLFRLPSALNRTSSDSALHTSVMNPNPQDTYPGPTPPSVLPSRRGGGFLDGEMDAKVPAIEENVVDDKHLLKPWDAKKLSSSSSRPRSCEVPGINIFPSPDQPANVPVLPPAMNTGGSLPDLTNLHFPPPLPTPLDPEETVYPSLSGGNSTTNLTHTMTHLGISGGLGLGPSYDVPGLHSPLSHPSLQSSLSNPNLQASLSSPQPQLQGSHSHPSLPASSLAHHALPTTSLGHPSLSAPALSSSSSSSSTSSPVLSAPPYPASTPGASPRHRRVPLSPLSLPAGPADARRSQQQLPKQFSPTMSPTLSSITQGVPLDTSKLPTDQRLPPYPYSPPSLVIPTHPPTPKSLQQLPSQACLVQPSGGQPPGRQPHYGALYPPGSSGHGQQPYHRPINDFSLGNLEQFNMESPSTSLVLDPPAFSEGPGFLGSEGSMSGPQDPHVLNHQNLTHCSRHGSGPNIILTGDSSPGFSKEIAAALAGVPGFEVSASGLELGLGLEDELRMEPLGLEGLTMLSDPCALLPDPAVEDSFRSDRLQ

BD-CREB (human) = BD-CREB (human) (UniProt P16220); test: two-hybrid; mammalian two-hybrid in HEK293T cells: BD-CREB and VP16AD-CRTC2-S171A with GAL4-Luc reporter, normalised to Renilla; with vehicle or propolis (0-0.1%)
[2] = biological target: endogenous CREB (mouse (endogenous in primary hepatocytes)) (UniProt Q01147); test: co-IP; anti-CREB antibody, lysates of primary hepatocytes expressing HA-CRTC2; with or without glucagon (100 nM) and APC (10 uM)
GST-CREB [3] = biological target: GST-CREB (UniProt P16220); test: pull-down; in vitro pull-down, purified GST-CREB and HIS-CRTC2-S171A from E. coli; APC 0, 5, 10 or 50 uM in the mixture; both purified
GST-CREB [4] = biological target: GST-CREB (UniProt P16220); test: pull-down; GST-CREB beads with lysates of HEK293T cells overexpressing FLAG-CRTC2; with or without APC (10 uM) in the culture media and the mixture; only the target purified
[5] = biological target: T2, CRTC2 (co-immunoprecipitation with SEC31A, Supplementary Fig. 5b) (UniProt Q53ET0); test: co-IP; co-immunoprecipitation of CRTC2 and SEC31A, with or without APC (Supplementary Fig. 5b)
T2 sequence: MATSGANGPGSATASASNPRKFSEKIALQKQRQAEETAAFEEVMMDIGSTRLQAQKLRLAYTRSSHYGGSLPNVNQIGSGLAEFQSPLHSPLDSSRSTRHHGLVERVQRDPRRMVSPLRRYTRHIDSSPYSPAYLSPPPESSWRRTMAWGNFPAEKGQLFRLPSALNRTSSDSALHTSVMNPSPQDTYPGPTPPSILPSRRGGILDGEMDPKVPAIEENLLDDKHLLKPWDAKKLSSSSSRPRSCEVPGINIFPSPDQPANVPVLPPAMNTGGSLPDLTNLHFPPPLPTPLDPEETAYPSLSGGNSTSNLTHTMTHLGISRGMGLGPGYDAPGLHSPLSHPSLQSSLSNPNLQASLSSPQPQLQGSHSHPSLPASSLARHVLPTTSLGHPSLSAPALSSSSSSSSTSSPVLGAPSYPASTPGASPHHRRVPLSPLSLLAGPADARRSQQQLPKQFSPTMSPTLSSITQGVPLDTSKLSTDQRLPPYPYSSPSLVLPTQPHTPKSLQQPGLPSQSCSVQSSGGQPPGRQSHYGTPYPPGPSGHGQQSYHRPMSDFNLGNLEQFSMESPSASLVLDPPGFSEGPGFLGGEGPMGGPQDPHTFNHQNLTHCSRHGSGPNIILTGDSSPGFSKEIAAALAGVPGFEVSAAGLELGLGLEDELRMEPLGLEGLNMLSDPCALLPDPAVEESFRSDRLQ

binding (CREB-KID): binds
Molecule: CBP-KIX (from UniProt Q92793 587-666) (domain or fragment)

binding [1]: binds
Molecule: endogenous CREB (from UniProt Q01147 1-327)

binding [1]: binds
Molecule: endogenous CBP (from UniProt P45481 1-2441)

binding (BD-CREB (human)): binds
B1: VP16AD-CRTC2-S171A (protein, UniProt Q53ET0 1-693)
chain: MATSGANGPGSATASASNPRKFSEKIALQKQRQAEETAAFEEVMMDIGSTRLQAQKLRLAYTRSSHYGGSLPNVNQIGSGLAEFQSPLHSPLDSSRSTRHHGLVERVQRDPRRMVSPLRRYTRHIDSSPYSPAYLSPPPESSWRRTMAWGNFPAEKGQLFRLPSALNRTSADSALHTSVMNPSPQDTYPGPTPPSILPSRRGGILDGEMDPKVPAIEENLLDDKHLLKPWDAKKLSSSSSRPRSCEVPGINIFPSPDQPANVPVLPPAMNTGGSLPDLTNLHFPPPLPTPLDPEETAYPSLSGGNSTSNLTHTMTHLGISRGMGLGPGYDAPGLHSPLSHPSLQSSLSNPNLQASLSSPQPQLQGSHSHPSLPASSLARHVLPTTSLGHPSLSAPALSSSSSSSSTSSPVLGAPSYPASTPGASPHHRRVPLSPLSLLAGPADARRSQQQLPKQFSPTMSPTLSSITQGVPLDTSKLSTDQRLPPYPYSSPSLVLPTQPHTPKSLQQPGLPSQSCSVQSSGGQPPGRQSHYGTPYPPGPSGHGQQSYHRPMSDFNLGNLEQFSMESPSASLVLDPPGFSEGPGFLGGEGPMGGPQDPHTFNHQNLTHCSRHGSGPNIILTGDSSPGFSKEIAAALAGVPGFEVSAAGLELGLGLEDELRMEPLGLEGLNMLSDPCALLPDPAVEESFRSDRLQ

binding [2]: binds
B2: HA-CRTC2 (protein, UniProt Q53ET0 1-693)
chain: MATSGANGPGSATASASNPRKFSEKIALQKQRQAEETAAFEEVMMDIGSTRLQAQKLRLAYTRSSHYGGSLPNVNQIGSGLAEFQSPLHSPLDSSRSTRHHGLVERVQRDPRRMVSPLRRYTRHIDSSPYSPAYLSPPPESSWRRTMAWGNFPAEKGQLFRLPSALNRTSSDSALHTSVMNPSPQDTYPGPTPPSILPSRRGGILDGEMDPKVPAIEENLLDDKHLLKPWDAKKLSSSSSRPRSCEVPGINIFPSPDQPANVPVLPPAMNTGGSLPDLTNLHFPPPLPTPLDPEETAYPSLSGGNSTSNLTHTMTHLGISRGMGLGPGYDAPGLHSPLSHPSLQSSLSNPNLQASLSSPQPQLQGSHSHPSLPASSLARHVLPTTSLGHPSLSAPALSSSSSSSSTSSPVLGAPSYPASTPGASPHHRRVPLSPLSLLAGPADARRSQQQLPKQFSPTMSPTLSSITQGVPLDTSKLSTDQRLPPYPYSSPSLVLPTQPHTPKSLQQPGLPSQSCSVQSSGGQPPGRQSHYGTPYPPGPSGHGQQSYHRPMSDFNLGNLEQFSMESPSASLVLDPPGFSEGPGFLGGEGPMGGPQDPHTFNHQNLTHCSRHGSGPNIILTGDSSPGFSKEIAAALAGVPGFEVSAAGLELGLGLEDELRMEPLGLEGLNMLSDPCALLPDPAVEESFRSDRLQ

binding (GST-CREB [3]): binds
B3: HIS-CRTC2-S171A (protein, UniProt Q53ET0 1-693)
chain: MATSGANGPGSATASASNPRKFSEKIALQKQRQAEETAAFEEVMMDIGSTRLQAQKLRLAYTRSSHYGGSLPNVNQIGSGLAEFQSPLHSPLDSSRSTRHHGLVERVQRDPRRMVSPLRRYTRHIDSSPYSPAYLSPPPESSWRRTMAWGNFPAEKGQLFRLPSALNRTSADSALHTSVMNPSPQDTYPGPTPPSILPSRRGGILDGEMDPKVPAIEENLLDDKHLLKPWDAKKLSSSSSRPRSCEVPGINIFPSPDQPANVPVLPPAMNTGGSLPDLTNLHFPPPLPTPLDPEETAYPSLSGGNSTSNLTHTMTHLGISRGMGLGPGYDAPGLHSPLSHPSLQSSLSNPNLQASLSSPQPQLQGSHSHPSLPASSLARHVLPTTSLGHPSLSAPALSSSSSSSSTSSPVLGAPSYPASTPGASPHHRRVPLSPLSLLAGPADARRSQQQLPKQFSPTMSPTLSSITQGVPLDTSKLSTDQRLPPYPYSSPSLVLPTQPHTPKSLQQPGLPSQSCSVQSSGGQPPGRQSHYGTPYPPGPSGHGQQSYHRPMSDFNLGNLEQFSMESPSASLVLDPPGFSEGPGFLGGEGPMGGPQDPHTFNHQNLTHCSRHGSGPNIILTGDSSPGFSKEIAAALAGVPGFEVSAAGLELGLGLEDELRMEPLGLEGLNMLSDPCALLPDPAVEESFRSDRLQ

binding (GST-CREB [4]): binds
B4: FLAG-CRTC2 (protein, UniProt Q53ET0 1-693)
chain: MATSGANGPGSATASASNPRKFSEKIALQKQRQAEETAAFEEVMMDIGSTRLQAQKLRLAYTRSSHYGGSLPNVNQIGSGLAEFQSPLHSPLDSSRSTRHHGLVERVQRDPRRMVSPLRRYTRHIDSSPYSPAYLSPPPESSWRRTMAWGNFPAEKGQLFRLPSALNRTSSDSALHTSVMNPSPQDTYPGPTPPSILPSRRGGILDGEMDPKVPAIEENLLDDKHLLKPWDAKKLSSSSSRPRSCEVPGINIFPSPDQPANVPVLPPAMNTGGSLPDLTNLHFPPPLPTPLDPEETAYPSLSGGNSTSNLTHTMTHLGISRGMGLGPGYDAPGLHSPLSHPSLQSSLSNPNLQASLSSPQPQLQGSHSHPSLPASSLARHVLPTTSLGHPSLSAPALSSSSSSSSTSSPVLGAPSYPASTPGASPHHRRVPLSPLSLLAGPADARRSQQQLPKQFSPTMSPTLSSITQGVPLDTSKLSTDQRLPPYPYSSPSLVLPTQPHTPKSLQQPGLPSQSCSVQSSGGQPPGRQSHYGTPYPPGPSGHGQQSYHRPMSDFNLGNLEQFSMESPSASLVLDPPGFSEGPGFLGGEGPMGGPQDPHTFNHQNLTHCSRHGSGPNIILTGDSSPGFSKEIAAALAGVPGFEVSAAGLELGLGLEDELRMEPLGLEGLNMLSDPCALLPDPAVEESFRSDRLQ

binding [5]: binds
B5: SEC31A (protein, UniProt O94979 1-1220)
chain: MKLKEVDRTAMQAWSPAQNHPIYLATGTSAQQLDATFSTNASLEIFELDLSDPSLDMKSCATFSSSHRYHKLIWGPYKMDSKGDVSGVLIAGGENGNIILYDPSKIIAGDKEVVIAQNDKHTGPVRALDVNIFQTNLVASGANESEIYIWDLNNFATPMTPGAKTQPPEDISCIAWNRQVQHILASASPSGRATVWDLRKNEPIIKVSDHSNRMHCSGLAWHPDVATQMVLASEDDRLPVIQMWDLRFASSPLRVLENHARGILAIAWSMADPELLLSCGKDAKILCSNPNTGEVLYELPTNTQWCFDIQWCPRNPAVLSAASFDGRISVYSIMGGSTDGLRQKQVDKLSSSFGNLDPFGTGQPLPPLQIPQQTAQHSIVLPLKKPPKWIRRPVGASFSFGGKLVTFENVRMPSHQGAEQQQQQHHVFISQVVTEKEFLSRSDQLQQAVQSQGFINYCQKKIDASQTEFEKNVWSFLKVNFEDDSRGKYLELLGYRKEDLGKKIALALNKVDGANVALKDSDQVAQSDGEESPAAEEQLLGEHIKEEKEESEFLPSSGGTFNISVSGDIDGLITQALLTGNFESAVDLCLHDNRMADAIILAIAGGQELLARTQKKYFAKSQSKITRLITAVVMKNWKEIVESCDLKNWREALAAVLTYAKPDEFSALCDLLGTRLENEGDSLLQTQACLCYICAGNVEKLVACWTKAQDGSHPLSLQDLIEKVVILRKAVQLTQAMDTSTVGVLLAAKMSQYANLLAAQGSIAAALAFLPDNTNQPNIMQLRDRLCRAQGEPVAGHESPKIPYEKQQLPKGRPGPVAGHHQMPRVQTQQYYPHGENPPPPGFIMHGNVNPNAAGQLPTSPGHMHTQVPPYPQPQPYQPAQPYPFGTGGSAMYRPQQPVAPPTSNAYPNTPYISSASSYTGQSQLYAAQHQASSPTSSPATSFPPPPSSGASFQHGGPGAPPSSSAYALPPGTTGTLPAASELPASQRTGPQNGWNDPPALNRVPKKKKMPENFMPPVPITSPIMNPLGDPQSQMLQQQPSAPVPLSSQSSFPQPHLPGGQPFHGVQQPLGQTGMPPSFSKPNIEGAPGAPIGNTFQHVQSLPTKKITKKPIPDEHLILKTTFEDLIQRCLSSATDPQTKRKLDDASKRLEFLYDKLREQTLSPTITSGLHNIARSIETRNYSEGLTMHTHIVSTSNFSETSAFMPVLKVVLTQANKLGV
